{"source": "paper doi:10.1101/2020.08.18.255471", "binders": {"B1": {"name": "PHF6, mouse (protein, UniProt Q9D4J7 1-364)", "chain": "MSSSIEQKKGSTRQRKCGFCKSNRDKECGQLLISENQKVAAHHKCMLFSSALVSSHSDNESLGGFSIEDVQKEIKRGTKLMCSLCHCPGATIGCDVKTCHRTYHYHCALHDKAQIREKPSQGIYMVYCRKHKKTAHNSEADLEESFNEHELEPSSPKTKKKSRKGRPRKTNLKGLPEDSRSTSSHGTDEMESSSYRDRSPHRSSPNDTRPKCGFCHVGEEENEARGKLHIFNAKKAAAHYKCMLFSSGTVQLTTTSRAEFGDFDIKTVLQEIKRGKRMKCTLCSQPGATIGCEIKACVKTYHYHCGVQDKAKYIENMSRGIYKLYCKNHSGNDERDEEDEERESKSRGRVAIDQQLTQQQLNGN"}}, "biological_target": "T1, LMO2, mouse (mouse (endogenous in ES cell-derived Flk-1+ cells and PUER cells)) (UniProt P25801)", "T1 sequence": "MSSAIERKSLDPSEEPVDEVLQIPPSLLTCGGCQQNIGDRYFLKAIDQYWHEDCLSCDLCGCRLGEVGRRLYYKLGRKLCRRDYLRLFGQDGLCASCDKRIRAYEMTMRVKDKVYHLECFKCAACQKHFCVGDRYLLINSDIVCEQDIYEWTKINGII", "assay": "affinity purification with mass spectrometry", "note": "Results are given in words; binding and its absence hold for the method and conditions named. In cells and extracts the contact can be indirect. These calls come from enrichment with a bait or labelling near it, and not all partners need be listed."}
{"binder": "B1", "values": [{"measurement": "binding", "value": "binds"}]}
